# Reference: patent US10144732B2 (BIOGEN MA INC., priority 2014, dated 2018)
# Where a name gives a salt, the structure may show the parent alone. Some results were stated once for a whole list of compounds, not compound by compound.
# Test system: 20:4 LPA (or 18:1 LPA) in rat K2 EDTA plasma
# Test: LPA plasma IC50 assay by LC-MS/MS
# Assay type: biochemical
# Conditions: 37° C. for 18 hours, peak area ratio of 20:4 LPA (or 18:1 LPA) over 18:3 LPA
row,Compound,IC50
1,"O=C(O)C1CC2CN(CC(=O)N3CCc4c(C(F)(F)F)nn(Cc5ccc(F)cc5)c4C3)CC2C1 (centres unmarked) [Example 13-10, 2-(2-(1-(4-Fluorobenzyl)-3-(trifluoromethyl)-4,5-dihydro-1H-pyrazolo[3,4-c]pyridin-6(7H)-yl)-2-oxoethyl)octahydrocyclopenta[c]pyrrole-5-carboxylic acid TFA salt]",≤ 0.1 µM
2,"CC1CCC(Cn2nc(C(F)(F)F)c3c2CN(C(=O)C[C@H]2CC[C@H](C(=O)O)CC2)CC3)CC1 (stereo partly drawn) [Example 5-37, trans-4-(2-(1-((4-Methylcyclohexyl)methyl)-3-(trifluoromethyl)-4,5-dihydro-1H-pyrazolo[3,4-c]pyridin-6(7H)-yl)-2-oxoethyl)cyclohexanecarboxylic acid]",≤ 0.1 µM
3,"O=C(O)C1CCC(CC(=O)N2CCc3c(C(F)(F)F)nn(Cc4cccc(F)c4)c3C2)CC1 (mixture of isomers) [Example 6-1, 4-(2-(1-(3-Fluorobenzyl)-3-(trifluoromethyl)-4,5-dihydro-1H-pyrazolo[3,4-c]pyridin-6(7H)-yl)-2-oxoethyl)cyclohexanecarboxylic acid]",≤ 0.1 µM
4,"NC(=O)[C@H]1CC[C@H](CC(=O)N2CCc3c(C(F)(F)F)nn(Cc4ccc(F)cc4)c3C2)CC1 [Example 20-2, trans-4-(2-(1-(4-Fluorobenzyl)-3-(trifluoromethyl)-4,5-dihydro-1H-pyrazolo[3,4-c]pyridin-6(7H)-yl)-2-oxoethyl)cyclohexanecarboxamide]",≤ 0.1 µM
5,"O=C(O)C[C@H]1CC[C@H](CC(=O)N2CCc3c(C(F)(F)F)nn(Cc4ccc(F)cc4)c3C2)CC1 [Example 5-48, 2-(trans-4-(2-(1-(4-Fluorobenzyl)-3-(trifluoromethyl)-4,5-dihydro-1H-pyrazolo[3,4-c]pyridin-6(7H)-yl)-2-oxoethyl)cyclohexyl)acetic acid]",≤ 0.1 µM
6,"O=C(O)C1CCCN(CC(=O)N2CCc3c(C(F)(F)F)nn(Cc4ccc(Cl)cc4F)c3C2)CC1 (centres unmarked) [Example 13-20, 1-(2-(1-(4-Chloro-2-fluorobenzyl)-3-(trifluoromethyl)-4,5-dihydro-1H-pyrazolo[3,4-c]pyridin-6(7H)-yl)-2-oxoethyl)azepane-4-carboxylic acid TFA salt]",≤ 0.1 µM
7,"O=C(O)CCCCC(=O)N1CCc2c(C(F)(F)F)nn(Cc3ccc(Cl)cc3F)c2C1 [Example 14-1, 6-(1-(4-Chloro-2-fluorobenzyl)-3-(trifluoromethyl)-4,5-dihydro-1H-pyrazolo[3,4-c]pyridin-6(7H)-yl)-6-oxohexanoic acid]",≤ 0.1 µM
8,"O=C(C[C@H]1CC[C@H](C(=O)O)CC1)N1CCc2c(C(F)(F)F)nn(Cc3cccnc3)c2C1 [Example 5-22, trans-4-(2-Oxo-2-(1-(pyridin-3-ylmethyl)-3-(trifluoromethyl)-4,5-dihydro-1H-pyrazolo[3,4-c]pyridin-6(7H)-yl)ethyl)cyclohexanecarboxylic acid]",≤ 0.1 µM
9,"O=C(C[C@H]1CC[C@H](C(=O)O)CC1)N1CCc2c(C(F)(F)F)nn(Cc3cc(F)cc(Cl)c3)c2C1 [Example 5-3, trans-4-(2-(1-(3-chloro-5-fluorobenzyl)-3-(trifluoromethyl)-4,5-dihydro-1H-pyrazolo[3,4-c]pyridin-6(7H)-yl)-2-oxoethyl)cyclohexanecarboxylic acid]",≤ 0.1 µM
10,"O=C(CC1CCOCC1)N1CCc2c(C(F)(F)F)nn(Cc3ccc(Cl)cc3F)c2C1 [Example 1-29, 1-(1-(4-Chloro-2-fluorobenzyl)-3-(trifluoromethyl)-4,5-dihydro-1H-pyrazolo[3,4-c]pyridin-6(7H)-yl)-2-(tetrahydro-2H-pyran-4-yl)ethanone]",≤ 0.1 µM
11,CC(=O)N1CCCC(CC(=O)N2CCc3c(C(F)(F)F)nn(Cc4ccc(F)cc4)c3C2)C1 (centres unmarked) [Example 17-1],≤ 0.1 µM
12,"O=C(C[C@H]1CC[C@@H](C(=O)O)CC1)N1CCc2c(C(F)(F)F)nn(Cc3ccc(Cl)cc3F)c2C1 [Example 5-2, cis-4-(2-(1-(4-Chloro-2-fluorobenzyl)-3-(trifluoromethyl)-4,5-dihydro-1H-pyrazolo[3,4-c]pyridin-6(7H)-yl)-2-oxoethyl)cyclohexanecarboxylic acid]",≤ 0.1 µM
13,"N#C[C@H]1CC[C@H](CC(=O)N2CCc3c(C(F)(F)F)nn(Cc4ccc(F)cc4)c3C2)CC1 [Example 21-2, trans-4-(2-(1-(4-Fluorobenzyl)-3-(trifluoromethyl)-4,5-dihydro-1H-pyrazolo[3,4-c]pyridin-6(7H)-yl)-2-oxoethyl)cyclohexanecarbonitrile]",≤ 0.1 µM
14,"CCC1CC(CC(=O)N2CCc3c(C(F)(F)F)nn(Cc4ccc(F)cc4)c3C2)CCN1 (centres unmarked) [Example 9-11, 2-(2-Ethylpiperidin-4-yl)-1-(1-(4-fluorobenzyl)-3-(trifluoromethyl)-4,5-dihydro-1H-pyrazolo[3,4-c]pyridin-6(7H)-yl)ethanone TFA salt]",≤ 0.1 µM
15,"O=C(O)C1CCC(CC(=O)N2CCc3c(C(F)(F)F)nn(Cc4ccc(C(F)(F)F)cc4)c3C2)CC1 (mixture of isomers) [Example 6-2, 4-(2-Oxo-2-(3-(trifluoromethyl)-1-(4-(trifluoromethyl)benzyl)-4,5-dihydro-1H-pyrazolo[3,4-c]pyridin-6(7H)-yl)ethyl)cyclohexanecarboxylic acid]",≤ 0.1 µM
16,"O=C(CCc1nc2ccccc2s1)N1CCc2c(C(F)(F)F)nn(Cc3ccc(F)cc3)c2C1 [Example 1-14, 3-(Benzo[d]thiazol-2-yl)-1-(1-(4-fluorobenzyl)-3-(trifluoromethyl)-4,5-dihydro-1H-pyrazolo[3,4-c]pyridin-6(7H)-yl)propan-1-one]",≤ 0.1 µM
17,"O=C(C[C@H]1CC[C@H](C(=O)O)CC1)N1CCc2c(C3CC3)nn(Cc3ccc(F)cc3)c2C1 [Example 5-38, trans-4-(2-(3-Cyclopropyl-1-(4-fluorobenzyl)-4,5-dihydro-1H-pyrazolo[3,4-c]pyridin-6(7H)-yl)-2-oxoethyl)cyclohexanecarboxylic acid]",≤ 0.1 µM
18,"O=C(O)C1CC2(CC(CC(=O)N3CCc4c(C(F)(F)F)nn(Cc5ccc(F)cc5)c4C3)C2)C1 (centres unmarked) [Example 6-13, 6-(2-(1-(4-Fluorobenzyl)-3-(trifluoromethyl)-4,5-dihydro-1H-pyrazolo[3,4-c]pyridin-6(7H)-yl)-2-oxoethyl)spiro[3.3]heptane-2-carboxylic acid]",≤ 0.1 µM
19,"O=C(O)c1ccc(CC(=O)N2CCc3c(C(F)(F)F)nn(Cc4ccc(Cl)cc4F)c3C2)cc1 [Example 5-5, 4-(2-(1-(4-Chloro-2-fluorobenzyl)-3-(trifluoromethyl)-4,5-dihydro-1H-pyrazolo[3,4-c]pyridin-6(7H)-yl)-2-oxoethyl)benzoic acid]",≤ 0.1 µM
20,"N#CC1CCN(CC(=O)N2CCc3c(C(F)(F)F)nn(Cc4ccc(F)cc4)c3C2)CC1 [Example 12-10, 1-(2-(1-(4-Fluorobenzyl)-3-(trifluoromethyl)-4,5-dihydro-1H-pyrazolo[3,4-c]pyridin-6(7H)-yl)-2-oxoethyl)piperidine-4-carbonitrile TFA salt]",≤ 0.1 µM
21,"O=C(O)C1CCC(CC(=O)N2CCc3c(C(F)(F)F)nn(Cc4ccc(F)cc4)c3C2)C1 (mixture of isomers) [Example 6-7, 3-(2-(1-(4-Fluorobenzyl)-3-(trifluoromethyl)-4,5-dihydro-1H-pyrazolo[3,4-c]pyridin-6(7H)-yl)-2-oxoethyl)cyclopentanecarboxylic acid]",≤ 0.1 µM
22,"O=C(C[C@H]1CC[C@H](C(=O)O)CC1)N1CCc2c(C(F)(F)F)nn(Cc3ccc(Cl)cc3F)c2C1 [Example 5-1, trans-4-(2-(1-(4-Chloro-2-fluorobenzyl)-3-(trifluoromethyl)-4,5-dihydro-1H-pyrazolo[3,4-c]pyridin-6(7H)-yl)-2-oxoethyl)cyclohexanecarboxylic acid]",≤ 0.1 µM
23,"O=C(O)CN1CCC(CC(=O)N2CCc3c(C(F)(F)F)nn(Cc4ccc(Cl)cc4F)c3C2)CC1 [Example 15-1, 2-(4-(2-(1-(4-Chloro-2-fluorobenzyl)-3-(trifluoromethyl)-4,5-dihydro-1H-pyrazolo[3,4-c]pyridin-6(7H)-yl)-2-oxoethyl)piperidin-1-yl)acetic acid]",≤ 0.1 µM
24,"O=C(C[C@H]1CC[C@H](C(=O)O)CC1)N1CCc2c(C(F)(F)F)nn(Cc3ccc(F)cc3)c2C1 [Example 7-1, trans-4-(2-(1-(4-Fluorobenzyl)-3-(trifluoromethyl)-4,5-dihydro-1H-pyrazolo[3,4-c]pyridin-6(7H)-yl)-2-oxoethyl)cyclohexanecarboxylic acid]",≤ 0.1 µM
25,"CC1(C)C(NCC(=O)N2CCc3c(C(F)(F)F)nn(Cc4ccc(Cl)cc4F)c3C2)CC1C(=O)O (centres unmarked) [Example 13-11, 3-((2-(1-(4-Chloro-2-fluorobenzyl)-3-(trifluoromethyl)-4,5-dihydro-1H-pyrazolo[3,4-c]pyridin-6(7H)-yl)-2-oxoethyl)amino)-2,2-dimethylcyclobutanecarboxylic acid TFA salt]",≤ 0.1 µM
26,"CC(C)N1CC(CC(=O)N2CCc3c(C(F)(F)F)nn(Cc4ccc(Cl)cc4F)c3C2)C[C@H]1C(=O)O (stereo partly drawn) [Example 10-12, (2S)-4-(2-(1-(4-Chloro-2-fluorobenzyl)-3-(trifluoromethyl)-4,5-dihydro-1H-pyrazolo[3,4-c]pyridin-6(7H)-yl)-2-oxoethyl)-1-isopropylpyrrolidine-2-carboxylic acid TFA salt]",≤ 0.1 µM
27,"O=C(C[C@H]1CC[C@H](C(=O)O)CC1)N1CCc2c(C(F)(F)F)nn(Cc3cc(F)c(F)cc3F)c2C1 [Example 5-32, trans-4-(2-(1-(2,4,5-Trifluorobenzyl)-3-(trifluoromethyl)-4,5-dihydro-1H-pyrazolo[3,4-c]pyridin-6(7H)-yl)-2-oxoethyl)cyclohexanecarboxylic acid]",≤ 0.1 µM
28,"O=C(C[C@H]1CC[C@@H](C(=O)O)CC1)N1CCc2c(C(F)(F)F)nn(Cc3ccc(F)cc3)c2C1 [Example 7-2, cis-4-(2-(1-(4-fluorobenzyl)-3-(trifluoromethyl)-4,5-dihydro-1H-pyrazolo[3,4-c]pyridin-6(7H)-yl)-2-oxoethyl)cyclohexanecarboxylic acid]",≤ 0.1 µM
29,"O=C(CC12CCC(C(=O)O)(CC1)CC2)N1CCc2c(C(F)(F)F)nn(Cc3ccc(F)cc3)c2C1 [Example 5-13, 4-(2-(1-(4-Fluorobenzyl)-3-(trifluoromethyl)-4,5-dihydro-1H-pyrazolo[3,4-c]pyridin-6(7H)-yl)-2-oxoethyl)bicyclo[2.2.2]octane-1-carboxylic acid]",≤ 0.1 µM
